Where a chain is given by its changes, count along the chain named. Results are given in words; binding and its absence hold for the method and conditions named. Some entries that bind do so weakly or less than the wild type.
B1: TNFR2 antibody #125 (antibody, V domains shown)
VH: EVQLQESGGGLVQPGGSLNLSCAASGFAFSIYDLSWVRQTPEKRLEWVAYINNGGISTYYSDTVKGRFTISRDNAKNTLYLQMSSLKSEDTAMYYCVRGPFYGSANYFDYWGQGTTVTVSS
VL: DIQMTQSPASLSLSVGETVTITCRASENIYSNLAWYQQKQGKSPQLLVYDATKLAEGVPSRFSGSESGTQYSLKINSLQSEDFGTYYCQHFWVTPWTFGGGTKLEIK
B2: TNFR2 antibody #001 (antibody, V domains shown)
VH: B1 VH with I31T
VL: B1 VL with D1E, Q3V, A25T, N28S, A34P
notes: also called antibody #1
B3: TNFR2 antibody #088 (antibody, V domains shown)
VH: B1 VH with I31T, E42G, S71T
VL: B1 VL with Q3L, S14F
B4: TNFR2 antibody #352 (antibody, V domains shown)
VH: EVQLQESGPGLVAPSQSLSITCTVSGFSLTSYGVHWVRQPPGKGLEWLVVIWSDGGTTYNSALKSRLSISKDNSKSQVFLKMNSLQTDDTAMYYCARHDDDGYYAMDYWGQGTTVTVSS
VL: DIVLTQSPSLMSASPGEKVTMTCSASSSVGYMYWYQQKPRSSPKPWIYLTSNLASGVPARFSGSGSGTSYSLTISSMEVEDAATYYCQQWSSDPFTFGSGTKLEIK
B5: TNFR2 antibody #365 (antibody, V domains shown)
VH: EVQLQESGPGLVQPSQSLSITCTVSGFSLTSYGVHWVRQSPGKGLEWLGLIWSDGSPDYSAAFISRLSINKDNSKSQVFFKMNSLQADDTAIYYCARNDDGGDYVMDYWGQGTTVTVSS
VL: B4 VL with D1E, S9A, G30S, V79A, S91T, D93N, F95L, S99A
B6: TNFR2 antibody #395 (antibody, V domains shown)
VH: B5 VH with G10V, G33S, L50V, S56G, P57T, N70S, V105A
VL: B4 VL with D1E, S9A, G30S, V79A, D93N, F95L, S99A
B7: TNFR2 antibody #309 (antibody, V domains shown)
VH: EVQLQESGAELVKPGASVKLSCKASGYTFTSYWIHWVKLRPGQGFEWIGEINPNNGGTDYNEKFKRKATLTVDKSSSTAYMELSSLTSEDSAIYYCTIDSMITTTWFAYWGQGTTVTVSS
VL: EIVMTQSQKLMSTVVGDRVSVTCKASQNVGTNVAWFQQKPGQSPKALINSASYRYSGVPDRFTGSGSGTDFTLTISSVQSEDLAEYFCQQYNSYPFTFGSGTKLEIK
B8: TNFR2 antibody #224 (antibody, V domains shown)
VH: EVQLQESGPEIVKPGASVKLSCTASGFNNKDIYMHWVKQRPEQGLEWIGRIDPATGNTKHDPKFQDKATLSSDTSSNTAYLQFSSLTSEDTAVYYCAHSPYGDFGAMDYWGQGTTVTVSS
VL: DIQMTQSPAIMSASLGERVTMTCTASSSVSSNYLHWYQQKPGSSPKLWIYSTSNLPSGVPARFSGSGSGTSYSLTISSMEAEDAATYYCHQYHRSPWTFGGGTKLEIK
B9: TNFR2 antibody #219 (antibody, V domains shown)
VH: EVQLQESGAELVRPGASVKLSCKASGYSFTNYWMNWVKQRPGQGLEWIGMIHPSDTETRLNQNFKDKATLTVDKSSSTSYMQLSSPTSEDSAVYYCARGEGLGAARSVSMDYWGQGTTVTVSS
VL: DILMTQSPSSLSASLGDRVTISCRASQDISNYLNWYQQKPDGTVKVLIYYTAILHSGVPSRFSGSGSGTDYSLTISNLEQEDIATYFCQQGNTLPWTFGGGTKLEIK
B10: TNFR2 antibody #226 (antibody, V domains shown)
VH: B9 VH with T56S, N63K, S79A
VL: B9 VL with L3Q, I53L
B11: TNFR2 antibody #133 (antibody, V domains shown)
VH: EVQLQESGAELVRSGASVKLSCTASGFNIKDYYIQWVKQRPEQGLEWIGWIDPESGNTKYAPKFQDKATMTADTSSNTAYLQLSGLTSEDSAVYYCNAYYDYDGSMDYWGQGTTVTVSS
VL: DIVMTQSPLSLPVSLGDQASISCRSSQSLVHSNGNTYLHWYLQKPGQSPKLLIYKVSNRFSGVPDRFSGSGSGTDFTLKISRVETDDLGVYFCSQSTHVPTWTFGGGTKLEIK

The chains behind the UniProt entries cited, without tags or fusion partners. Where a name states a change or a piece, a line headed by the entry shows the natural chain unless it says otherwise. Residues count along the entry.
UniProt P20333: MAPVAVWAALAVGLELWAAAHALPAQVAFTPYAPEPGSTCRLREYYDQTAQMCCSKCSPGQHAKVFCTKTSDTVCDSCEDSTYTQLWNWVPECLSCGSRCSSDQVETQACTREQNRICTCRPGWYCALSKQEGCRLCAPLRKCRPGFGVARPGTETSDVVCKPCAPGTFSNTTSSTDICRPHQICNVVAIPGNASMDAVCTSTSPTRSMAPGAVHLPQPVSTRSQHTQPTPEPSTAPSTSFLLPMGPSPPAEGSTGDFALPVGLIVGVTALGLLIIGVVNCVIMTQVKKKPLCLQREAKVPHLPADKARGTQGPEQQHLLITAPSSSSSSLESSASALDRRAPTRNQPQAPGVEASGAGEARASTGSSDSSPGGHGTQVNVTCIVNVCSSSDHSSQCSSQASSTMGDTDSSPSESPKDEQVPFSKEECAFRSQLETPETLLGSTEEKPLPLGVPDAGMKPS
human TNFR2 on the cell surface (CHO-TNFR2 cells; human Treg cells): residues 23-461 of P20333
Human TNFR2 recombinant protein (Sino 10417-H08H): residues 23-257 of P20333

target: cynomolgus TNFR2 (Sino 90102-C08H) (cynomolgus); assay: ELISA

binding, binds:
B1, B2, B3, B4, B5, B6, B7, B8, B9, B10, B11

target: Human TNFR2 recombinant protein (Sino 10417-H08H) (human) (UniProt P20333); assay: ELISA

binding, binds:
B3

target: human TNFR2 on the cell surface (CHO-TNFR2 cells; human Treg cells) (human) (UniProt P20333); assay: flow cytometry on human Treg cells, antibody 200 ng/ml

binding, binds:
B3

target: cynomolgus TNFR2 (Sino 90102-C08H) (cynomolgus); assay: recap of the earlier examples, method not named

binding, binds:
B1, B2, B3, B4, B5, B6, B7, B8, B9, B10, B11

target: Human TNFR2 recombinant protein (Sino 10417-H08H) (human) (UniProt P20333); assay: recap of the earlier examples, method not named

binding, binds:
B3

target: human TNFR2 on the cell surface (CHO-TNFR2 cells; human Treg cells) (human) (UniProt P20333); assay: flow cytometry on CHO-TNFR2 cells, antibody diluted to 80 ng/ml, PE goat anti-human IgG Fc

binding, binds:
B3

target: cynomolgus TNFR2 (Sino 90102-C08H) (cynomolgus); assay: SPR Biacore

binding, binds:
B1, B2, B3, B4, B5, B6, B7, B8, B9, B10, B11

target: Human TNFR2 recombinant protein (Sino 10417-H08H) (human) (UniProt P20333); assay: SPR Biacore

binding, binds:
B3

target: human TNFR2 on the cell surface (CHO-TNFR2 cells; human Treg cells) (human) (UniProt P20333); assay: flow cytometry on expanded human Treg cells, antibody 200 ng/ml, PE goat anti-human IgG Fc

binding, binds:
B3

target: human TNFR2 on the cell surface (CHO-TNFR2 cells; human Treg cells) (human) (UniProt P20333); assay: flow cytometry competition on CHO-TNFR2 cells against human TNFα-biotin [label on D00006), panel #088]

binding, binds:
B3

target: human TNFR2 on the cell surface (CHO-TNFR2 cells; human Treg cells) (human) (UniProt P20333); assay: flow cytometry on CHO-TNFR2 cells, antibody diluted to 80 ng/ml

binding, binds:
B3

Source: US20220017630A1 (JIANGSU SIMCERE PHARMACEUTICAL, published 2022)
